The list is a part of this screen's results and no random one: it gathers tests that were run many times, whatever their T/C, doses with no T/C, and many T/C values between a quarter and a half above the control. Other doses and runs of a compound stand elsewhere. T/C is the treated group as % of the vehicle group. Some doses have a count of surviving animals in place of a T/C: the source files T/C as zero there, which appears to mark a toxic dose or a test without result, not a measured value. Some survivor counts are full or nearly so, which does not show that the dose was tolerated: survival well below the control is almost never listed, so the zero probably covers shortened survival too. Counts of survivors are from the toxicity check (mostly the fifth day) where no day follows; animals may have died later. Schedules are NCI's codes, taken here to give the interval after Q, in days (D) or hours (H), and the number of doses after X. Some entries were tested several times; the results are listed from low to high. For survival time, this PubChem deposit counts one and a half times the control or more as active, and values a quarter to a half above the control carry no call in these data; other NCI protocols may use other cut-offs. Some T/C values carry the count of animals alive at the toxicity check (mostly the fifth day); where none is given, no animal had died by that day.
System: P388 leukemia ip, CD2F1 mice, survival T/C
Experiment: NCI In Vivo Anticancer Drug Screen. Data for tumor model P388 Leukemia (intraperitoneal) in CD2F1 (CDF1) mice
Details: T/C endpoint: median survival time, higher T/C = longer survival
[1] = dose: 200.0 mg/kg/injection, schedule: Q01DX005 (ip), vehicle: saline with Tween-80
[2] = dose: 50.0 mg/kg/injection, schedule: Q01DX005 (ip), vehicle: saline with Tween-80
[3] = dose: 100.0 mg/kg/injection, schedule: Q01DX005 (ip), vehicle: saline with Tween-80
[4] = dose: 200.0 mg/kg/injection, schedule: Q01DX005 (ip), vehicle: Klucel (hydroxypropylcellulose) (HPC)
[5] = dose: 50.0 mg/kg/injection, schedule: Q04DX002 (ip), vehicle: saline with Tween-80
[6] = dose: 100.0 mg/kg/injection, schedule: Q04DX002 (ip), vehicle: saline with Tween-80
[7] = dose: 200.0 mg/kg/injection, schedule: Q01DX005 (ip), vehicle: saline
[8] = dose: 60.0 mg/kg/injection, schedule: Q01DX005 (ip), vehicle: saline with Tween-80
[9] = dose: 120.0 mg/kg/injection, schedule: Q01DX005 (ip), vehicle: saline with Tween-80
[10] = dose: 240.0 mg/kg/injection, schedule: Q01DX005 (ip), vehicle: saline with Tween-80
[11] = dose: 400.0 mg/kg/injection, schedule: Q01DX001 (ip), vehicle: saline with Tween-80
[12] = dose: 200.0 mg/kg/injection, schedule: Q01DX009 (ip), vehicle: saline with Tween-80
[13] = dose: 50.0 mg/kg/injection, schedule: Q01DX009 (ip), vehicle: Klucel (hydroxypropylcellulose) (HPC)
[14] = dose: 100.0 mg/kg/injection, schedule: Q01DX009 (ip), vehicle: Klucel (hydroxypropylcellulose) (HPC)
[15] = dose: 200.0 mg/kg/injection, schedule: Q01DX009 (ip), vehicle: Klucel (hydroxypropylcellulose) (HPC)
[16] = dose: 100.0 mg/kg/injection, schedule: Q01DX009 (ip), vehicle: saline
[17] = dose: 200.0 mg/kg/injection, schedule: Q01DX009 (ip), vehicle: saline
[18] = dose: 200.0 mg/kg/injection, schedule: Q04DX003 (ip), vehicle: saline
[19] = dose: 240.0 mg/kg/injection, schedule: Q01DX005 (ip), vehicle: Klucel (hydroxypropylcellulose) (HPC)

How did the survivor count [1] turn out when `CCN(CC)CCCNc1cccc2c(SCc3ccccc3)ccnc12` was run?
Its survivor count is 5 of 5.

With `CC/C(=N\NC(=S)SC)c1ccccn1` as the compound, how does the T/C [2] read?
The T/C was 117, 127, 133 % of control.

And the survivor count [2]?
Its survivor count is 6 of 6.

And the survivor count [3]?
Its survivor count is 4 of 6 and 4 of 5.

And the survivor count [1]?
Its survivor count is 2 of 5.

Which results are given for `Nc1n[nH]c2ccccc12`?
T/C [4]: 125 % of control; T/C (dose: 400.0 mg/kg/injection, schedule: Q01DX005 (ip), vehicle: Klucel (hydroxypropylcellulose) (HPC)): 131 % of control [5 of 6 alive]

Which survivor count [5] does the source give for `CN=C(N)N/N=C(C)/C(C)=C/c1ccccc1` here?
The survivor count was 3 of 6.

And the survivor count [6]?
The survivor count was 0 of 6.

Which survivor count [3] does the source give for `Cc1cc2ccccc2c[n+]1CCCCCCCCI` here?
Its survivor count is 1 of 5.

And the survivor count [1]?
Its survivor count is 0 of 5.

`C1CCC2CC3CCCCN3COC2CC1` (stereo not drawn) was tested. Which survivor count [7] did it give?
Its survivor count is 2 of 6.

`CCCCc1c(C#N)c(=O)n2c(N)c(C(=O)OCC)cnc2c1SC` was tested. Which T/C (dose: 15.0 mg/kg/injection, schedule: Q01DX005 (ip), vehicle: saline with Tween-80) did it give?
Its T/C is 132 % of control.

What about the T/C (dose: 22.5 mg/kg/injection, schedule: Q01DX005 (ip), vehicle: saline with Tween-80) of the same compound?
The T/C was 129 % of control.

What about the survivor count [8] of the same compound?
Its survivor count is 2 of 6.

And the survivor count [9]?
Its survivor count is 0 of 6.

And the survivor count [10]?
Its survivor count is 0 of 6 and 3 of 6.

Which results are given for `C/C(=N\NC(N)=S)c1cccc(/C(C)=N/NC(N)=S)n1`?
survivor count (dose: 100.0 mg/kg/injection, schedule: Q04DX003 (ip), vehicle: saline with Tween-80): 3 of 6; survivor count (dose: 200.0 mg/kg/injection, schedule: Q04DX003 (ip), vehicle: saline with Tween-80): 2 of 6; survivor count (dose: 400.0 mg/kg/injection, schedule: Q04DX003 (ip), vehicle: saline with Tween-80): 5 of 6

Which survivor count [1] does the source give for `OC(c1cc(-c2ccc(Cl)cc2)nc2ccccc12)C1CCCCN1` (stereo not drawn) here?
The survivor count was 4 of 5.

Which results are given for `Clc1cc(Cl)c(C[N+]23CN4CN(CN(C4)C2)C3)cc1Cl`?
T/C (dose: 50.0 mg/kg/injection, schedule: Q01DX009 (ip), vehicle: saline with Tween-80): 130 % of control; T/C (dose: 100.0 mg/kg/injection, schedule: Q01DX009 (ip), vehicle: saline with Tween-80, evaluated on day 20): 140 % of control; T/C (dose: 100.0 mg/kg/injection, schedule: Q01DX009 (ip), vehicle: saline with Tween-80, evaluated on day 30): 132 % of control; T/C (dose: 200.0 mg/kg/injection, schedule: Q01DX009 (ip), vehicle: saline with Tween-80, evaluated on day 20): 140 % of control [5 of 6 alive]; T/C (dose: 200.0 mg/kg/injection, schedule: Q01DX009 (ip), vehicle: saline with Tween-80, evaluated on day 30): 135 % of control; survivor count (dose: 400.0 mg/kg/injection, schedule: Q01DX009 (ip), vehicle: saline with Tween-80): 0 of 6

With `CN(C)/C=C1\C(=O)O[C@H]2CCC[C@@]12C` as the compound, how does the survivor count [11] read?
Its survivor count is 0 of 6.

Which survivor count [6] does the source give for `CN=C(N)N/N=C(\c1ccc(Cl)cc1)c1ccc([N+](=O)[O-])cc1Cl` here?
Its survivor count is 1 of 6.

`C[n+]1cc(Cl)cc(Br)c1` was tested. Which T/C (dose: 50.0 mg/kg/injection, schedule: Q01DX005 (ip), vehicle: saline) did it give?
Its T/C is 127 % of control.

What about the T/C (dose: 100.0 mg/kg/injection, schedule: Q01DX005 (ip), vehicle: saline) of the same compound?
Its T/C is 128 % of control.

And the survivor count [7]?
The survivor count was 1 of 6.

For `O=C1OC2(CCCC2)OC(=O)C1=Cc1ccc([N+](=O)[O-])s1`, which survivor count [12] is on record?
Its survivor count is 3 of 6.

For `C[N+]1(C)CCc2c([nH]c3ccccc23)C1`, which survivor count (dose: 400.0 mg/kg/injection, schedule: Q01DX001 (ip), vehicle: suspension in saline) is on record?
Its survivor count is 0 of 6.

Which results are given for `CNC(=O)OCc1c(COC(=O)NC)c(-c2ccc(F)cc2)n2c1CCC2`?
survivor count (dose: 25.0 mg/kg/injection, schedule: Q01DX009 (ip), vehicle: Klucel (hydroxypropylcellulose) (HPC)): 2 of 6; survivor count [13]: 4 of 6; survivor count [14]: 0 of 6; survivor count [15]: 0 of 6

With `C=C1C(=O)O[C@@H]2C[C@@H](C)[C@@H]3CC(=O)OC[C@@]3(C)C[C@H]12` as the compound, how does the survivor count [11] read?
Its survivor count is 2 of 6.

For `Cc1[nH]c(NC(=O)C(=O)O)c(C#N)c1C`, which survivor count (dose: 100.0 mg/kg/injection, schedule: Q01DX009 (ip), vehicle: saline with Tween-80) is on record?
The survivor count was 2 of 6.

With `CN(N=O)C(=O)NCC1OC(OC2(CO)OC(CNC(=O)N(C)N=O)C(O)C2O)C(O)C(O)C1O` (stereo not drawn) as the compound, how does the T/C [16] read?
Its T/C is 130 % of control.

And the T/C [17]?
The T/C was 137 and 140 % of control.

What does the source list for `O=C(O)CCC(=O)OCN1C(=O)C2C3C=CC(C2C1=O)C1C2C(=O)N(COC(=O)CCC(=O)O)C(=O)C2C31` (stereo not drawn)?
survivor count (dose: 100.0 mg/kg/injection, schedule: Q01DX009 (ip), vehicle: water): 5 of 6; survivor count (dose: 200.0 mg/kg/injection, schedule: Q01DX009 (ip), vehicle: water): 2 of 6 and 4 of 6

`CCC(CCC(C)C1CCC2C3CC=C4CC(O)CCC4(C)C3CCC12C)C(C)C` (stereo not drawn) (tested in a mixture with another compound) was tested. Which survivor count [15] did it give?
The survivor count was 0 of 6.

For `CN(C)CCC1(C)OCCC2=C1Cc1ccccc12` (stereo not drawn), which survivor count [12] is on record?
Its survivor count is 1 of 6.

`C[C@H]1CCC/C=C/[C@@H]2C[C@H](O)C[C@H]2[C@H](O)/C=C/C(=O)O1` was tested. Which survivor count (dose: 50.0 mg/kg/injection, schedule: Q04DX003 (ip), vehicle: Klucel (hydroxypropylcellulose) (HPC)) did it give?
The survivor count was 6 of 6.

Which survivor count [3] does the source give for `CCCCN(CCCC)CCCNc1c2c(nc3ccc(Cl)cc13)CCCC2` here?
Its survivor count is 1 of 6.

What about the survivor count [1] of the same compound?
Its survivor count is 0 of 6.

Which survivor count [16] does the source give for `CC(C)c1nc(N)nc(N)n1` here?
Its survivor count is 3 of 6.

What does the source list for `CCCCNP(=O)(N1CC1CC)N1CC1CC` (stereo not drawn)?
T/C (dose: 132.0 mg/kg/injection, schedule: Q04DX003 (ip), vehicle: saline): 131 % of control; T/C [18]: 136 % of control

Which results are given for `Oc1ccccc1O.[O-]c1ccccc1[O-].[O-]c1ccccc1[O-].[O]=[V+2]`?
survivor count (dose: 20.0 mg/kg/injection, schedule: Q01DX009 (ip), vehicle: saline): 6 of 6; survivor count (dose: 100.0 mg/kg/injection, schedule: Q04DX003 (ip), vehicle: saline): 0 of 6; survivor count [18]: 0 of 6; survivor count (dose: 400.0 mg/kg/injection, schedule: Q04DX003 (ip), vehicle: saline): 0 of 6

`COc1ccc(C2OC3=C(Nc4ccc(Cl)cc4N3)C2=O)c(OC)c1` (stereo not drawn) was tested. Which survivor count (dose: 7.5 mg/kg/injection, schedule: Q01DX005 (ip), vehicle: Klucel (hydroxypropylcellulose) (HPC)) did it give?
The survivor count was 6 of 6.

And the survivor count (dose: 15.0 mg/kg/injection, schedule: Q01DX005 (ip), vehicle: Klucel (hydroxypropylcellulose) (HPC))?
Its survivor count is 6 of 6.

What about the survivor count (dose: 30.0 mg/kg/injection, schedule: Q01DX005 (ip), vehicle: Klucel (hydroxypropylcellulose) (HPC)) of the same compound?
Its survivor count is 6 of 6.

And the survivor count (dose: 60.0 mg/kg/injection, schedule: Q01DX005 (ip), vehicle: Klucel (hydroxypropylcellulose) (HPC))?
Its survivor count is 5 of 6 and 6 of 6.

What about the survivor count [19] of the same compound?
Its survivor count is 3 of 6.

What does the source list for `CN=C(N)N/N=C/c1c2ccccc2c(Cl)c2ccccc12`?
survivor count [5]: 1 of 6; survivor count [6]: 1 of 6

How did the survivor count [10] turn out when `COC(=O)c1nc(N)nc(C(=O)OC)c1C(=O)c1ccc(Cl)cc1Cl` was run?
Its survivor count is 0 of 6.

How did the survivor count [8] turn out when `CCOP(=O)(OCC)c1nc(Cl)nc(Cl)c1SC(F)(F)F` was run?
The survivor count was 3 of 6.

What about the survivor count [9] of the same compound?
Its survivor count is 0 of 6.

What about the survivor count [10] of the same compound?
The survivor count was 0 of 6.

With `O=C(CC(=O)N1CCN=C1Nc1c(Cl)cccc1Cl)c1ccc(Cl)cc1` as the compound, how does the survivor count [13] read?
Its survivor count is 5 of 6.

What about the survivor count [14] of the same compound?
The survivor count was 3 of 6.

What about the survivor count [15] of the same compound?
Its survivor count is 1 of 6.

How did the survivor count [4] turn out when `O=S(=O)(F)C(Br)(Br)S(=O)(=O)F` was run?
Its survivor count is 2 of 6.

For `Cc1ccc(C(=O)OC(CCN(C)C)c2ccccc2)cc1` (stereo not drawn), which survivor count [17] is on record?
The survivor count was 6 of 6.

For `CCCn1c(O)c(C(=O)CC)sc1=S`, which survivor count [19] is on record?
The survivor count was 0 of 6.

From PubChem BioAssay AID330 (DTP/NCI, 2004)
